In the supplement of paper PMC4604168 (melanoma cell lines):
The other results are listed elsewhere or left out. Repeats are few or missing, and single values can be far off.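 Cells were imaged in 1,536-well plates, and nuclei stained with an antibody against cleaved PARP were counted against all DNA-stained nuclei to give the apoptosis fraction. Screening doses were chosen to leave most cells alive, and resting and induced cleaved-PARP levels differ strongly between cell lines.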

What was measured:
Experiment in all cases: cleaved PARP positive nuclei fraction relative to DMSO control; melanoma cells; higher = more apoptosis
Conditions in all cases: library dose: low library concentration; 72 h
MZ2-MEL = test system: MZ2-MEL
MeWo = test system: MeWo
RPMI7951 = test system: RPMI7951
RVH-421 = test system: RVH-421
SkMel28 = test system: SkMel28
SkMel2 = test system: SkMel2
SkMel30 = test system: SkMel30
SkMel5 = test system: SkMel5
UACC257 = test system: UACC257
UACC62 = test system: UACC62
WM115 = test system: WM115
WM1716 = test system: WM1716
WM1745 = test system: WM1745
WM3526 = test system: WM3526
WM3619 = test system: WM3619
WM451Lu = test system: WM451Lu

| Compound | cleaved PARP positive nuclei fraction (MZ2-MEL) [%] | cleaved PARP positive nuclei fraction (MeWo) [%] | cleaved PARP positive nuclei fraction (RPMI7951) [%] | cleaved PARP positive nuclei fraction (RVH-421) [%] | cleaved PARP positive nuclei fraction (SkMel28) [%] | cleaved PARP positive nuclei fraction (SkMel2) [%] | cleaved PARP positive nuclei fraction (SkMel30) [%] | cleaved PARP positive nuclei fraction (SkMel5) [%] | cleaved PARP positive nuclei fraction (UACC257) [%] | cleaved PARP positive nuclei fraction (UACC62) [%] | cleaved PARP positive nuclei fraction (WM115) [%] | cleaved PARP positive nuclei fraction (WM1716) [%] | cleaved PARP positive nuclei fraction (WM1745) [%] | cleaved PARP positive nuclei fraction (WM3526) [%] | cleaved PARP positive nuclei fraction (WM3619) [%] | cleaved PARP positive nuclei fraction (WM451Lu) [%] |
| --- | --- | --- | --- | --- | --- | --- | --- | --- | --- | --- | --- | --- | --- | --- | --- | --- |
| Cn1c(=O)n(-c2ccc(C(C)(C)C#N)cc2)c2c3cc(-c4cnc5ccccc5c4)ccc3ncc21 + CO[C@@H]1[C@H](N(C)C(=O)c2ccccc2)C[C@H]2O[C@]1(C)n1c3ccccc3c3c4c(c5c6ccccc6n2c5c31)C(=O)NC4 [Midostaurin] (first compound 0.004 µM, partner dose 0.08 µM) | 67.1 | 50.2 | 115 | 107 | 42.7 | 69.4 | 73.5 | 65.4 | 42 | 138 | 133 | 137 | 112 | 66.5 | 132 | 158 |
| Nc1nc(F)nc2c1ncn2[C@@H]1O[C@H](CO)[C@@H](O)[C@@H]1O [fludarabine] + O=C(O)c1ccc(-c2c[nH]c3ncc(-c4ccccc4)cc23)cc1C1CCCC1 [GSK650394] (first compound 0.2 µM, partner dose 0.16 µM) | 111 | 862 | 126 | 52.2 | 114 | 728 | 360 | 184 | 605 | 245 | 171 | 112 | 87 | 206 | 109 | 367 |
| CC(C)C[C@H](NC(=O)[C@H](Cc1ccccc1)NC(=O)c1cnccn1)B(O)O [Bortezomib] + COc1cc(Nc2ncc(F)c(Nc3ccc4c(n3)NC(=O)C(C)(C)O4)n2)cc(OC)c1OC [Tamatinib] (first compound 0.001 µM, partner dose 0.4 µM) | 237 | 58.3 | 97.2 | 60.2 | 120 | 90.2 | 62.4 | 77 | 126 | 100 | 124 | 106 | 276 | 60.7 | 968 | 29.7 |
| CNC(=O)c1cc(Oc2ccc(NC(=O)Nc3ccc(Cl)c(C(F)(F)F)c3)cc2)ccn1 [sorafenib] + C[C@@H]1CCN(C(=O)CC#N)C[C@@H]1N(C)c1ncnc2[nH]ccc12 [CP690550] (first compound 0.4 µM, partner dose 1 µM) | 67.6 | 56.8 | 155 | 84.2 | 488 | 103 | 29.6 | 132 | 53.6 | 143 | 33.9 | 151 | 96.4 | 46.2 | 94 | 83.4 |
| Nc1ccn([C@@H]2O[C@H](CO)[C@@H](O)C2(F)F)c(=O)n1 [gemcitabine] + C[C@@H]1CCN(C(=O)CC#N)C[C@@H]1N(C)c1ncnc2[nH]ccc12 [CP690550] (first compound 0.0004 µM, partner dose 1 µM) | 86.3 | 134 | 69.8 | 93.1 | 108 | 68.6 | 57.9 | 135 | 162 | 72.9 | 37.5 | 57.1 | 120 | 32.8 | 125 | 95.9 |
| CN1CCN(c2ccc3nc(-c4c(N)c5c(F)cccc5[nH]c4=O)[nH]c3c2)CC1 [Dovitinib] + CC(C)(C)c1cnc(CSc2cnc(NC(=O)C3CCNCC3)s2)o1 [SNS-032] (first compound 0.1 µM, partner dose 0.01 µM) | 178 | 106 | 43.5 | 22.1 | 70.8 | 126 | 79.3 | 187 | 70.2 | 324 | 54.7 | 178 | 117 | 66.2 | 95.1 | 39.7 |
| Cc1cc(Nc2cc(N3CCN(C)CC3)nc(/C=C/c3ccccc3)n2)n[nH]1 + CC(C)(C)c1cnc(CSc2cnc(NC(=O)C3CCNCC3)s2)o1 [SNS-032] (first compound 0.04 µM, partner dose 0.01 µM) | 142 | 44.6 | 22.9 | 114 | 125 | 68.6 | 58.4 | 83.9 | 255 | 198 | 64.5 | 183 | 102 | 166 | 118 | 32.8 |
| Nc1ncn([C@H]2C[C@H](O)[C@@H](CO)O2)c(=O)n1 [decitabine] + Cc1cc([N+](=O)[O-])ccc1NS(=O)(=O)c1cc(Cl)ccc1Cl [FH535] (first compound 0.1 µM, partner dose 1 µM) | 96.1 | 70.1 | 36.1 | 145 | 199 | 81.7 | 137 | 90.2 | 126 | 137 | 51.6 | 173 | 92.3 | 129 | 125 | 169 |
| C[C@@H](Oc1cc(-c2cnn(C3CCNCC3)c2)cnc1N)c1c(Cl)ccc(F)c1Cl [Crizotinib] + O=S(=O)(c1ccccc1)N(CC(F)(F)F)c1ccc(C(O)(C(F)(F)F)C(F)(F)F)cc1 [T0901317] (first compound 0.2 µM, partner dose 1.4 µM) | 104 | 69.5 | 130 | 124 | 210 | 145 | 137 | 100 | 80.7 | 176 | 38.4 | 106 | 99.7 | 166 | 103 | 36.4 |
| CN1CCN(c2ccc3nc(-c4c(N)c5c(F)cccc5[nH]c4=O)[nH]c3c2)CC1 [Dovitinib] + COC(=O)c1sccc1S(=O)(=O)Nc1ccc(Nc2ccccc2)cc1OC [GSK0660] (first compound 0.1 µM, partner dose 1 µM) | 80 | 91 | 35.7 | 127 | 97.2 | 84.4 | 96.3 | 77.9 | 88.1 | 94.2 | 176 | 111 | 171 | 79.5 | 75.7 | 147 |
| C[C@@H](Oc1cc(-c2cnn(C3CCNCC3)c2)cnc1N)c1c(Cl)ccc(F)c1Cl [Crizotinib] + O=c1cc(-c2cccc3c2Sc2ccccc2S3)oc(N2CCOCC2)c1 [KU55933] (first compound 0.2 µM, partner dose 1 µM) | 173 | 30.3 | 74 | 178 | 64.1 | 152 | 46.9 | 76.3 | 131 | 118 | 210 | 161 | 105 | 252 | 81 | 35.8 |
| C[C@@H](Oc1cc(-c2cnn(C3CCNCC3)c2)cnc1N)c1c(Cl)ccc(F)c1Cl [Crizotinib] + OCCn1cc(-c2cnc3nnn(Cc4ccc5ncccc5c4)c3n2)cn1 [PF04217903] (first compound 0.2 µM, partner dose 1 µM) | 133 | 79.3 | 100 | 24.4 | 36.9 | 144 | 78.9 | 99.6 | 57.5 | 76.7 | 61.5 | 81.1 | 98.2 | 206 | 84.1 | 225 |
| Cc1cc(Nc2cc(N3CCN(C)CC3)nc(/C=C/c3ccccc3)n2)n[nH]1 + COc1cc(Nc2ncc(F)c(Nc3ccc4c(n3)NC(=O)C(C)(C)O4)n2)cc(OC)c1OC [Tamatinib] (first compound 0.04 µM, partner dose 0.4 µM) | 92.4 | 117 | 74.8 | 133 | 131 | 92.2 | 72.2 | 76.6 | 63.3 | 73.5 | 72.6 | 109 | 118 | 56.8 | 105 | 130 |
| C=C(c1ccc(C(=O)O)cc1)c1cc2c(cc1C)C(C)(C)CCC2(C)C [Bexarotene] + COc1ccc(-c2ccc3c(N4CCOCC4)nc(N4C[C@@H](C)O[C@@H](C)C4)nc3n2)cc1CO [KU0063794] (first compound 2 µM, partner dose 0.02 µM) | 114 | 125 | 250 | 74.8 | 230 | 55.5 | 170 | 176 | 153 | 110 | 157 | 119 | 105 | 77.8 | 102 | 77 |
| CNC(=O)c1cc(Oc2ccc(NC(=O)Nc3ccc(Cl)c(C(F)(F)F)c3)cc2)ccn1 [sorafenib] + Cc1cc([N+](=O)[O-])ccc1NS(=O)(=O)c1cc(Cl)ccc1Cl [FH535] (first compound 0.4 µM, partner dose 1 µM) | 81.8 | 62.9 | 66.7 | 224 | 168 | 63.6 | 37.8 | 78.2 | 95.2 | 93.7 | 49.4 | 190 | 101 | 77.7 | 103 | 67.8 |
| CS(=O)(=O)CCNCc1ccc(-c2ccc3ncnc(Nc4ccc(OCc5cccc(F)c5)c(Cl)c4)c3c2)o1 [lapatinib] + CN(NC(=O)CC(=O)NN(C)C(=S)c1ccccc1)C(=S)c1ccccc1 [STA4783] (first compound 0.8 µM, partner dose 0.006 µM) | 73.5 | 91.7 | 124 | 83.8 | 51.2 | 31 | 67.1 | 94.5 | 103 | 135 | 104 | 60.6 | 180 | 148 | 159 | 121 |
| O=C(O)c1ccc2c(c1)nc(Nc1cccc(Cl)c1)c1ccncc12 + COc1ccc(COc2ccc(Cc3cnc(N)nc3N)cc2OC)cc1 [GW2580] (first compound 0.4 µM, partner dose 1 µM) | 195 | 60.9 | 34.8 | 38.7 | 23.9 | 123 | 78.5 | 78.2 | 76.9 | 99.9 | 228 | 244 | 94 | 98.2 | 76 | 51.4 |
| CNC(=O)c1cc(Oc2ccc(NC(=O)Nc3ccc(Cl)c(C(F)(F)F)c3)cc2)ccn1 [sorafenib] + N#Cc1c(O)c2c(-c3ccc(-c4ccccc4O)cc3)csc2[nH]c1=O [A769662] (first compound 0.4 µM, partner dose 2 µM) | 201 | 115 | 72.1 | 60.6 | 191 | 40.6 | 167 | 78.4 | 132 | 194 | 114 | 64.3 | 99.6 | 58.4 | 73.5 | 68.9 |

A section taken from the entries so far, as a working copy:

| Compound | cleaved PARP positive nuclei fraction (MZ2-MEL) [%] | cleaved PARP positive nuclei fraction (MeWo) [%] | cleaved PARP positive nuclei fraction (RPMI7951) [%] | cleaved PARP positive nuclei fraction (RVH-421) [%] | cleaved PARP positive nuclei fraction (SkMel28) [%] | cleaved PARP positive nuclei fraction (SkMel2) [%] | cleaved PARP positive nuclei fraction (SkMel30) [%] | cleaved PARP positive nuclei fraction (SkMel5) [%] | cleaved PARP positive nuclei fraction (UACC257) [%] | cleaved PARP positive nuclei fraction (UACC62) [%] | cleaved PARP positive nuclei fraction (WM115) [%] | cleaved PARP positive nuclei fraction (WM1716) [%] | cleaved PARP positive nuclei fraction (WM1745) [%] | cleaved PARP positive nuclei fraction (WM3526) [%] | cleaved PARP positive nuclei fraction (WM3619) [%] | cleaved PARP positive nuclei fraction (WM451Lu) [%] |
| --- | --- | --- | --- | --- | --- | --- | --- | --- | --- | --- | --- | --- | --- | --- | --- | --- |
| CC(C)C[C@H](NC(=O)[C@H](Cc1ccccc1)NC(=O)c1cnccn1)B(O)O [Bortezomib] + COc1cc(Nc2ncc(F)c(Nc3ccc4c(n3)NC(=O)C(C)(C)O4)n2)cc(OC)c1OC [Tamatinib] (first compound 0.001 µM, partner dose 0.4 µM) | 237 | 58.3 | 97.2 | 60.2 | 120 | 90.2 | 62.4 | 77 | 126 | 100 | 124 | 106 | 276 | 60.7 | 968 | 29.7 |
| CNC(=O)c1cc(Oc2ccc(NC(=O)Nc3ccc(Cl)c(C(F)(F)F)c3)cc2)ccn1 [sorafenib] + C[C@@H]1CCN(C(=O)CC#N)C[C@@H]1N(C)c1ncnc2[nH]ccc12 [CP690550] (first compound 0.4 µM, partner dose 1 µM) | 67.6 | 56.8 | 155 | 84.2 | 488 | 103 | 29.6 | 132 | 53.6 | 143 | 33.9 | 151 | 96.4 | 46.2 | 94 | 83.4 |
